The values below come from publication doi:10.1101/2022.09.13.507805.

Sequences of proteins named here, by UniProt entry; tags and fusion partners are left off.
UniProt Q96704: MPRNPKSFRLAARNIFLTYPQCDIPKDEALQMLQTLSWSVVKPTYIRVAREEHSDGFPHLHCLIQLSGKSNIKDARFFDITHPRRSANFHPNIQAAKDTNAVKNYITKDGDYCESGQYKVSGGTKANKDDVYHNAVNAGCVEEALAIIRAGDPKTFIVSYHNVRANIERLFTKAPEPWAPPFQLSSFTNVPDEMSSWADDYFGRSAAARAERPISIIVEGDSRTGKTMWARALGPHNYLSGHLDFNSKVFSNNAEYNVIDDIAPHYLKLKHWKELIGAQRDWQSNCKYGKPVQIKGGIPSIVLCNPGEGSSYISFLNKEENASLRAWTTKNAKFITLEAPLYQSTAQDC

Like-named read-outs stand apart in the source and are kept apart here. These are yes or no findings as the source states them, for the method shown. Binding seen in cells or lysates may run through a third protein. Some results given as binding are weak or reduced against the parent protein; the word gives no strength. Where a sequence is shown, tags or fusion partners need not be part of it.

Holding throughout (assay): co-IP
Test [1] has as its target T1, FM-RAD51 (Flag-4Myc-tagged RAD51) (Arabidopsis thaliana) (UniProt P94102).
T1 sequence: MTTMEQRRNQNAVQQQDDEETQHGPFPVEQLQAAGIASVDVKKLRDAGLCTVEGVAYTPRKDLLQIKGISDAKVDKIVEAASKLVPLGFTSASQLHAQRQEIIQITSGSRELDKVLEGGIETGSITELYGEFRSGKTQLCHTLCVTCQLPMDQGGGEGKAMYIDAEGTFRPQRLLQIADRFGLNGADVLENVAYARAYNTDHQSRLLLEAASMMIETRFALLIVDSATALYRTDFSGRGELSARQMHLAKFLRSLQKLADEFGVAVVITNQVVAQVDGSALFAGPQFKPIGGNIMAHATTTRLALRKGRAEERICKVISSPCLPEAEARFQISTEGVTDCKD

For test [2], the target named is T2, HA-BRCA1 (HA3-tagged BRCA1) (Arabidopsis thaliana) (UniProt Q8RXD4).
T2 sequence: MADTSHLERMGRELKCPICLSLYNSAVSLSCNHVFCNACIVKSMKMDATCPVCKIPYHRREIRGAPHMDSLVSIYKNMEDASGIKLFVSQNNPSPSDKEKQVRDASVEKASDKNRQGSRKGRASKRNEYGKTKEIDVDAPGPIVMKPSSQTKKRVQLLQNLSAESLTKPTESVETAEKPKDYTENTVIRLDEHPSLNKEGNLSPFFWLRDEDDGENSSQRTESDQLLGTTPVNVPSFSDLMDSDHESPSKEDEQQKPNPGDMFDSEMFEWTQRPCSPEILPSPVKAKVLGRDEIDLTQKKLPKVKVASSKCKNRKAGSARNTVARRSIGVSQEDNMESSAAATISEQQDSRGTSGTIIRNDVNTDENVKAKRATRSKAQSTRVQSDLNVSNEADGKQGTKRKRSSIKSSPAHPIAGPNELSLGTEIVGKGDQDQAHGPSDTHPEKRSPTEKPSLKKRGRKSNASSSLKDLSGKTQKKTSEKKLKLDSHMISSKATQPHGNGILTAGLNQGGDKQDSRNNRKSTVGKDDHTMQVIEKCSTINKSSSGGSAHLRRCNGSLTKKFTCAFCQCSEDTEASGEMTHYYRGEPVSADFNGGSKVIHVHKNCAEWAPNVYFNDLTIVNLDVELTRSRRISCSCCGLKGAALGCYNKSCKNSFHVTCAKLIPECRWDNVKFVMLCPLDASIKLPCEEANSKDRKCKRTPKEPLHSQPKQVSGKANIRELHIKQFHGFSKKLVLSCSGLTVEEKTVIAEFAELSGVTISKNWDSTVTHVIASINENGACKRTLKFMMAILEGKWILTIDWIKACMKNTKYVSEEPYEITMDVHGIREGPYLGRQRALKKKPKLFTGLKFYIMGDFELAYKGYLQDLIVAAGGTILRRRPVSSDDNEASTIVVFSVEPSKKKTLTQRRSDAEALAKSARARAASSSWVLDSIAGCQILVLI

Test [3] deals with T3, FM-CYCB1 (Flag-4Myc-tagged CYCB1;1) (Arabidopsis thaliana) (UniProt P30183).
T3 sequence: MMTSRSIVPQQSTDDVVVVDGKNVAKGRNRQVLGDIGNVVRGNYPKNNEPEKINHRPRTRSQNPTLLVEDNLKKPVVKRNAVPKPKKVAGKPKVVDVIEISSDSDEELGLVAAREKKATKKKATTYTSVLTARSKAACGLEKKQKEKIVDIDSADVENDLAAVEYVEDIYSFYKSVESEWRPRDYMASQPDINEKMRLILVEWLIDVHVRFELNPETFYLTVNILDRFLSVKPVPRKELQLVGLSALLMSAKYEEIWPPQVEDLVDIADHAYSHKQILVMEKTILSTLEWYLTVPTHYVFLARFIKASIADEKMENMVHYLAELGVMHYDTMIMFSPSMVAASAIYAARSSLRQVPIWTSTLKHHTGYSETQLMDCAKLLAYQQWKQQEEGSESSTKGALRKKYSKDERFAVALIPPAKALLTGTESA

In test [4] the target is FM-Rep (Flag-4Myc-tagged Rep of CaLCuV) (Cabbage Leaf Curl Virus (CaLCuV)) (UniProt Q96704).
For test [5], the target named is T1, FM-RAD51 (Flag-4Myc-tagged RAD51) (Arabidopsis thaliana). The source holds these as a separate data set.

On to “HA-Rep (HA-tagged Rep of CaLCuV) (from UniProt Q96704 1-349)”, for which, in test [1], the binding result is “binds”.

B1: FM-RAD51 (Flag-4Myc-tagged RAD51) (protein, UniProt P94102 1-342)
chain: T1 sequence
Take B1: the binding result in test [2] is on record as “binds”.

B2: HA-RAD51 (HA3-tagged RAD51) (protein, UniProt P94102 1-342)
chain: T1 sequence
For B2, the binding result in test [3] is listed as “binds”.

B3: HA-RPA1A (HA3-tagged RPA1A) (protein, UniProt Q9SKI4 1-640)
chain: MPVSLTPNAITAIHDGDVNLKPLLQVLEIKMIGRSQERSQERYRFLISDGVSAQHAMVAVQLNDRVKSGQFEKGSIVQLIDYICSDVKGRKLIVVLNMETIVQQSETIGNPTIFGETDTEAQKTFSGTGNIPPPNRVVFNEPMVQHSVNRAPPRGVNIQNQANNTPSFRPSVQPSYQPPASYRNHGPIMKNEAPARVIPIAALNPYQGRWAIKARVTAKGDIRRYNNAKGDGKVFSFDLLDYDGGEIRVTCFNALVDRFYDVTEVGKVYLISKGSLKPAQKNFNHLKNEWEIFLESTSTVELCPDEDGSIPKQQFSFRPISDIENAENNTILDVIGVVTSVNPSVPILRKNGMETHRRILNLKDESGKAVEVTLWGEFCNRDGRQLEEMVDSAFHPVLAIKAGKVSDFSGKSVGTISSTQLFINPDFPEAHKLRTWFDYGGKDTASFSISRDTMPGGVSRNEIRKNVSQIKEEGLGRSDKPDWITVKATISFIKTDSFCYTACPLMIGDKQCNKKVTRSGTNRWLCDRCNQESDECDYRYLLQVQIQDHTGLTWITAFQETGEEIMGCPAKKLYAMKYELEKEEEFAEIVRDRLFHQYMLKLKIKEESYGDEQRVKMTVVKVDKVNYTSESKYMLDLLVR
In the case of B3, the binding entry in test [4] and in test [5] was “binds” throughout.
